# Some of the results follow.
# Tests used:
# Assay in all cases: glycan array binding signal (z-score within array); higher = stronger binding
# Conditions in all cases: glycan notation: IUPAC condensed, linker removed
# Fuc(a1-3)GlcNAc = target: Fuc(a1-3)GlcNAc
# Summary of the method: (§1)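 Glycan array data came from 3228 arrays in the Consortium for Functional Glycomics database, and only arrays with an available protein sequence were kept. Glycan names were put into IUPAC-condensed notation, and columns mapping to the same glycan were averaged. The binding signal is a within-array Z-score, averaged across arrays of one protein sequence run at different concentrations or buffers and across linkers. A negative Z-score can be read as non-binding.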
# [1] = target: Fuc(a1-3)[Gal(b1-4)]Glc6S
# Summary of the method: as §1
# [2] = target: Fuc(a1-3)[Gal(b1-4)]GlcNAc
# Summary of the method: as §1
# [3] = target: Fuc(a1-3)[Gal(b1-4)]GlcNAc(b1-2)Man
# Summary of the method: as §1
# [4] = target: Fuc(a1-3)[Gal(b1-4)]GlcNAc(b1-2)Man(a1-3)[Fuc(a1-3)[Gal(b1-4)]GlcNAc(b1-2)Man(a1-6)]Man(b1-4)GlcNAc(b1-4)GlcNAc
# Summary of the method: as §1
# [5] = target: Fuc(a1-3)[Gal(b1-4)]GlcNAc(b1-2)Man(a1-3)[Fuc(a1-3)[Gal(b1-4)]GlcNAc(b1-2)Man(a1-6)]Man(b1-4)GlcNAc(b1-4)[Fuc(a1-6)]GlcNAc
# Summary of the method: as §1
# [6] = target: Fuc(a1-3)[Gal(b1-4)]GlcNAc(b1-3)Gal(b1-3)[Fuc(a1-4)]GlcNAc
# Summary of the method: as §1
# [7] = target: Fuc(a1-3)[Gal(b1-4)]GlcNAc(b1-3)Gal(b1-4)[Fuc(a1-3)]GlcNAc
# Summary of the method: as §1
# [8] = target: Fuc(a1-3)[Gal(b1-4)]GlcNAc(b1-3)Gal(b1-4)[Fuc(a1-3)]GlcNAc(b1-3)Gal(b1-4)[Fuc(a1-3)]GlcNAc
# Summary of the method: as §1
# [9] = target: Fuc(a1-3)[Gal(b1-4)]GlcNAc(b1-3)GalNAc
# Summary of the method: as §1
# [10] = target: Fuc(a1-3)[Gal(b1-4)]GlcNAc(b1-6)GalNAc
# Summary of the method: as §1
# [11] = target: Fuc(a1-3)[Gal(b1-4)]GlcNAc(b1-6)[Gal(b1-3)GlcNAc(b1-3)]Gal(b1-4)Glc
# Summary of the method: as §1
# [12] = target: Fuc(a1-3)[Gal(b1-4)]GlcNAc6S
# Summary of the method: as §1
# [13] = target: Fuc(a1-3)[Gal3S(b1-4)]Glc
# Summary of the method: as §1
# [14] = target: Fuc(a1-3)[Gal3S(b1-4)]GlcNAc
# Summary of the method: as §1
# [15] = target: Fuc(a1-3)[Gal3S(b1-4)]GlcNAc6S
# Summary of the method: as §1
# [16] = target: Fuc(a1-3)[GalNAc(b1-4)]GlcNAc
# Summary of the method: as §1
# [17] = target: Fuc(a1-3)[GalNAc(b1-4)]GlcNAc6S
# Summary of the method: as §1
# Fuc(a1-4)GlcNAc = target: Fuc(a1-4)GlcNAc
# Summary of the method: as §1
# Fuc(b1-3)GlcNAc = target: Fuc(b1-3)GlcNAc
# Summary of the method: as §1
# Gal(a1-2)Gal = target: Gal(a1-2)Gal
# Summary of the method: as §1
# Gal(a1-3)Gal = target: Gal(a1-3)Gal
# Summary of the method: as §1
# Gal(a1-3)Gal(b1-3)GlcNAc = target: Gal(a1-3)Gal(b1-3)GlcNAc
# Summary of the method: as §1
# [18] = target: Gal(a1-3)Gal(b1-3)GlcNAc(b1-2)Man
# Summary of the method: as §1
# [19] = target: Gal(a1-3)Gal(b1-3)GlcNAc(b1-2)Man(a1-3)[Gal(a1-3)Gal(b1-3)GlcNAc(b1-2)Man(a1-6)]Man(b1-4)GlcNAc(b1-4)GlcNAc
# Summary of the method: as §1
# [20] = target: Gal(a1-3)Gal(b1-3)GlcNAc(b1-3)GalNAc
# Summary of the method: as §1
# [21] = target: Gal(a1-3)Gal(b1-3)GlcNAc(b1-6)GalNAc
# Summary of the method: as §1
# [22] = target: Gal(a1-3)Gal(b1-3)[Fuc(a1-4)]GlcNAc(b1-2)Man(a1-3)[Gal(a1-3)Gal(b1-3)[Fuc(a1-4)]GlcNAc(b1-2)Man(a1-6)]Man(b1-4)GlcNAc(b1-4)GlcNAc
# Summary of the method: as §1
# Gal(a1-3)Gal(b1-4)Glc = target: Gal(a1-3)Gal(b1-4)Glc
# Summary of the method: as §1
# Gal(a1-3)Gal(b1-4)GlcNAc = target: Gal(a1-3)Gal(b1-4)GlcNAc
# Summary of the method: as §1
binder,measurement,setting,value
Aap brpt (Staphylococcus epidermidis) (protein) VDGDPITSTEEIPFDKKREFDPNLAPGTEKVVQKGEPGTKTITTPTTKNPLTGEKVGEGEPTEKITKQPVDEIVHYGGEEIKTGHKDEFDPNAPKGSQTTQPGKPGVKNPDTGEVVTPPVDDVTKYGPVDGDPITSTEEIPFDKKREFDPNLAPGTEKVVQKGEPGTKTITTPTTKNPLTGEKVGEGEPTEKITKQPVDEIVHYGGEEIKPGHKDEFDPNAPKGSQEDVPGKPGVKNPDTGEVVTPPVDDVTKYGPVDGDSITSTEEIPFDKKREFDPNLAPGTEKVVQKGEPGTKTITTPTTKNPLTGEKVGEGEPTEKITKQPVDEIVHYGGEQIPQGHKDEFDPNAPVDSKTEVPGKPGVKNPDTGEVVTPPVDDVTKYGPVDGDSITSTEEIPFDKKREFDPNLAPGTEKVVQKGEPGTKTITTPTTKNPLTGEKVGEGKSTEKVTKQPVDEIVEYGPTK,glycan array binding signal (z-score),Fuc(a1-3)GlcNAc,-0.922
same,glycan array binding signal (z-score),[1],0.738
same,glycan array binding signal (z-score),[2],-0.26
same,glycan array binding signal (z-score),[3],-0.698
same,glycan array binding signal (z-score),[4],-1.23
same,glycan array binding signal (z-score),[5],0.06
same,glycan array binding signal (z-score),[6],0.103
same,glycan array binding signal (z-score),[7],-0.164
same,glycan array binding signal (z-score),[8],-1.34
same,glycan array binding signal (z-score),[9],0.052
same,glycan array binding signal (z-score),[10],0.4
same,glycan array binding signal (z-score),[11],0.86
same,glycan array binding signal (z-score),[12],0.059
same,glycan array binding signal (z-score),[13],0.077
same,glycan array binding signal (z-score),[14],0.583
same,glycan array binding signal (z-score),[15],0.794
same,glycan array binding signal (z-score),[16],-0.763
same,glycan array binding signal (z-score),[17],-0.612
same,glycan array binding signal (z-score),Fuc(a1-4)GlcNAc,0.26
same,glycan array binding signal (z-score),Fuc(b1-3)GlcNAc,-0.794
same,glycan array binding signal (z-score),Gal(a1-2)Gal,-1.61
same,glycan array binding signal (z-score),Gal(a1-3)Gal,2.41
same,glycan array binding signal (z-score),Gal(a1-3)Gal(b1-3)GlcNAc,-0.608
same,glycan array binding signal (z-score),[18],-0.752
same,glycan array binding signal (z-score),[19],0.422
same,glycan array binding signal (z-score),[20],-0.777
same,glycan array binding signal (z-score),[21],-1.32
same,glycan array binding signal (z-score),[22],0.664
same,glycan array binding signal (z-score),Gal(a1-3)Gal(b1-4)Glc,0.985
same,glycan array binding signal (z-score),Gal(a1-3)Gal(b1-4)GlcNAc,-1.84

# Two records drawn at random from those above, as already listed:
binder,measurement,setting,value
Aap brpt (Staphylococcus epidermidis) (protein) VDGDPITSTEEIPFDKKREFDPNLAPGTEKVVQKGEPGTKTITTPTTKNPLTGEKVGEGEPTEKITKQPVDEIVHYGGEEIKTGHKDEFDPNAPKGSQTTQPGKPGVKNPDTGEVVTPPVDDVTKYGPVDGDPITSTEEIPFDKKREFDPNLAPGTEKVVQKGEPGTKTITTPTTKNPLTGEKVGEGEPTEKITKQPVDEIVHYGGEEIKPGHKDEFDPNAPKGSQEDVPGKPGVKNPDTGEVVTPPVDDVTKYGPVDGDSITSTEEIPFDKKREFDPNLAPGTEKVVQKGEPGTKTITTPTTKNPLTGEKVGEGEPTEKITKQPVDEIVHYGGEQIPQGHKDEFDPNAPVDSKTEVPGKPGVKNPDTGEVVTPPVDDVTKYGPVDGDSITSTEEIPFDKKREFDPNLAPGTEKVVQKGEPGTKTITTPTTKNPLTGEKVGEGKSTEKVTKQPVDEIVEYGPTK,glycan array binding signal (z-score),Gal(a1-2)Gal,-1.61
same,glycan array binding signal (z-score),[6],0.103
